This note sets out measurements from paper PMC6591922.

Sequences of proteins named here, by UniProt entry; tags and fusion partners are left off.
UniProt Q15022: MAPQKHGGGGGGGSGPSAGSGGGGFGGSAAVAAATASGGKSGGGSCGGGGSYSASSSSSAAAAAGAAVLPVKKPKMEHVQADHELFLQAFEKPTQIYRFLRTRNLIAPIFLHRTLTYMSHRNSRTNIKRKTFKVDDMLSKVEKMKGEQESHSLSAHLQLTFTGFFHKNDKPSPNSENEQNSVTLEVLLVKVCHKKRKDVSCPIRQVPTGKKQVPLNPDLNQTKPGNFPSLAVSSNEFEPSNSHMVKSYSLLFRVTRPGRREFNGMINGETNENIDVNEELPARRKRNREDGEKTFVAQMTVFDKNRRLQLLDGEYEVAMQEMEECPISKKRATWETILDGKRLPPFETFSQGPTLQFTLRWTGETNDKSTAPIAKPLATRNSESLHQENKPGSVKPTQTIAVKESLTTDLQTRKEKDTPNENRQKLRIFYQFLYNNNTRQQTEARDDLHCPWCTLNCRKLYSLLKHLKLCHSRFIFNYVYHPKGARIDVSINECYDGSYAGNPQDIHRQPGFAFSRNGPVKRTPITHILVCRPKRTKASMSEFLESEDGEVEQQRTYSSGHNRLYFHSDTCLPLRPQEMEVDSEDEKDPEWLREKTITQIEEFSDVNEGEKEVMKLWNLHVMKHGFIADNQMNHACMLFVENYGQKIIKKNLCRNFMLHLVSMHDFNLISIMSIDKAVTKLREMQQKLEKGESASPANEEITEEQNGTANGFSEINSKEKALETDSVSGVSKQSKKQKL

The target in test [1] is T1, Flag-tagged USP3 (ubiquitin-specific protease 3) (UniProt Q9Y6I4).
T1 sequence: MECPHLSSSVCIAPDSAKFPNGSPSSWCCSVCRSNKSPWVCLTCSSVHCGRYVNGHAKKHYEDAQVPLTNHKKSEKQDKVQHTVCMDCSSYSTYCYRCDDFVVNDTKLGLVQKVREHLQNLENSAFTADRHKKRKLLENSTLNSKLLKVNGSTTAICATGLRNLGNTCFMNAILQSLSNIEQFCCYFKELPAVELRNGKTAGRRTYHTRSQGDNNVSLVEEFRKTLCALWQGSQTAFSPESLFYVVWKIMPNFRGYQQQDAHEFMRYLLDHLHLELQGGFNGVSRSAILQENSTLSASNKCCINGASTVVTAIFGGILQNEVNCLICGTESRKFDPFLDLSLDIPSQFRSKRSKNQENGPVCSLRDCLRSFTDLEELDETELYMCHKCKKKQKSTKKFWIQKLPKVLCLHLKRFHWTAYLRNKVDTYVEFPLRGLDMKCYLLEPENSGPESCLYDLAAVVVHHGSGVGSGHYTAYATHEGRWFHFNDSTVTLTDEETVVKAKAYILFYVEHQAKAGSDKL
The test is described as follows: co-IP; GC cells cotransfected with Flag-tagged USP3 and Myc-tagged SUZ12; immunoprecipitation with anti-Flag or anti-Myc antibody, normal mouse IgG as control, Western blot for the other tag. (A western blot detects proteins with antibodies after separation by electrophoresis.)

Test [2] concerns the target T2, USP3 (ubiquitin-specific protease 3), endogenous (human (endogenous in gastric cancer cell lines)) (UniProt Q9Y6I4).
T2 sequence: T1 sequence
The test is described as follows: co-IP; endogenous proteins; lysates of GC cells immunoprecipitated with an anti-USP3 antibody or normal rabbit IgG, Western blot with an anti-SUZ12 antibody; called reciprocal in the text.

The target of test [3] is Myc-tagged SUZ12 (suppressor of zeste 12 protein homolog) (UniProt Q15022). The test is described as follows: co-IP; GC cells cotransfected with Flag-tagged USP3 and Myc-tagged SUZ12; immunoprecipitation with anti-Flag or anti-Myc antibody, normal mouse IgG as control, Western blot for the other tag.

These are yes or no findings as the source states them, for the method shown. Binding seen in cells or lysates may run through a third protein. Some results given as binding are weak or reduced against the parent protein; the word gives no strength. For part of these data: Sequences can lack the tags named with a protein.

As to “Myc-tagged SUZ12 (suppressor of zeste 12 protein homolog) (from UniProt Q15022 1-739)”, the binding result in test [1] is “binds”. With “SUZ12 (suppressor of zeste 12 protein homolog), endogenous (from UniProt Q15022 1-739)”, the binding result in test [2] was “binds”.

B1: Flag-tagged USP3 (ubiquitin-specific protease 3) (enzyme, UniProt Q9Y6I4 1-520)
chain: T1 sequence
Regarding B1, the binding result in test [3] was “binds”.
